Test results from patent publication US12258308B2, “Benzene derivative” (ONO PHARMACEUTICAL CO., LTD., priority 2018, dated 2025).
Some entries share one result that the patent states for a list of compounds.

Test system: Hand1-ES cells (murine ES cells)
Assay: Hand1-EST test (reproductive and developmental toxicity)
Type: cell-based
Conditions: for Teratogenic risk probability (POCA Hand1-EST Analysis Software): 5 days exposure, from maximum solubility, 50% inhibition of living cells and of differentiation efficiency; for Teratogenic risk: POCA Hand1-EST risk class

O=C(O)CCc1ccccc1OCCC/C=C/c1cccc(NS(=O)(=O)c2ccccc2)c1 [Example 84, 3-[2-[(E)-5-[3-(Benzenesulfonamido)phenyl]pent-4-enoxy]phenyl]propanoic acid]
Teratogenic risk probability (POCA Hand1-EST Analysis Software): less than 0.52
Teratogenic risk: low (low risk: provability was less than 0.52)

O=C(O)CCc1ccccc1OCCC/C=C/c1cccc([C@H](O)Cc2ccccc2)c1 [Example 86, 3-[2-[(E)-5-[3-[(1R)-1-Hydroxy-2-phenylethyl]phenyl]pent-4-enoxy]phenyl]propanoic acid]
Teratogenic risk probability (POCA Hand1-EST Analysis Software): less than 0.52
Teratogenic risk: low (low risk: provability was less than 0.52)

O=C(O)CCc1ccccc1OCCC/C=C/c1cccc([C@@H](O)Cc2ccccc2)c1 [Example 87, 3-[2-[(E)-5-[3-[(1S)-1-Hydroxy-2-phenylethyl]phenyl]pent-4-enoxy]phenyl]propanoic acid]
Teratogenic risk probability (POCA Hand1-EST Analysis Software): less than 0.52
Teratogenic risk: low (low risk: provability was less than 0.52)
